# Assay results taken from patent US10703748B2, “Diazanaphthalen-3-yl carboxamides and preparation and use thereof” (Samumed, LLC, priority 2017, dated 2020).
# At least one compound was matched to its structure with a doubt left.
# What was measured:
# GSK3β kinase = GSK3β kinase (Homo sapiens, UniProt P49841); assay: GSK3β kinase activity (Ser/Thr 09 peptide Z-lyte FRET assay); type: biochemical; details: recombinant kinase, 46 μM ATP, one hour at room temperature
# DYRK1A kinase = DYRK1A kinase (Homo sapiens, UniProt Q13627); assay: DYRK1A kinase activity (Ser/Thr 18 peptide Z-lyte FRET assay); type: biochemical; details: recombinant DYRK1A, 30 μM ATP, one hour at room temperature;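 further: kinase activity read as coumarin/fluorescein emission ratio after development step, with unphosphorylated and phosphorylated peptide forms setting 0% and 100% controls, values from dose-response curves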
Compound,EC50 (GSK3β kinase) [nM],EC50 (DYRK1A kinase) [nM]
Cn1cc(-c2ccc3cnc(NC(=O)C(C)(C)F)cc3n2)nn1 [Compound 333],2770,880
O=C(Nc1cc2nc(-c3cnn4c3CN(CCF)CC4)ccc2cn1)C1CCC(F)(F)CC1 [Compound 317],7,–
